Values from PubChem BioAssay AID652272 (Drosophila RNAi Screening Center, 2013)
Screen: 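Genes whose knock-down decreases or increases Hedgehog reporter output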 (primary screen). Cells: Drosophila clone 8 (Cl8) cells. Reagents: long dsRNA against Drosophila genes. Measured: 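Firefly light from a Hedgehog-responsive ptc promoter reporter and Renilla reference light, both read on a plate reader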. Scale: firefly Hh reporter signal: higher = more ptc reporter light; Renilla reference signal: higher = more Renilla control light. Active means: 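Called a hit if the two-replicate mean z-score lies below -2 or above +3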. Meaning of the calls: active = hit: reporter lowered or raised; inactive = not a hit.
The deposit covers about 21,000 reagents; this is a random part of those with a known target gene and a result. In the full data, 503 (2.4%) got an active call. 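Raw plate light values, not normalised; calls rest on replicate z-scores that were not deposited; hits include reporter decreases as well as increases.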 The numbers tell different reagents against one gene apart. Reagent sequences are not shown. The record does not give: the amount of reagent, the time to read-out.

Knock-down of CG31639 gave: firefly Hh reporter signal, replicate 1 = 6.25e5; firefly Hh reporter signal, replicate 2 = 2.60e5; Renilla reference signal, replicate 1 = 32612; Renilla reference signal, replicate 2 = 11776; inactive.
CG13436 scored firefly Hh reporter signal, replicate 1 = 1.07e5; firefly Hh reporter signal, replicate 2 = 42452; Renilla reference signal, replicate 1 = 3440; Renilla reference signal, replicate 2 = 2733; inactive.
nmo (nemo) #1 showed firefly Hh reporter signal, replicate 1 = 1.23e5; firefly Hh reporter signal, replicate 2 = 2.07e5; Renilla reference signal, replicate 1 = 2972; Renilla reference signal, replicate 2 = 8528; inactive.
For nmo (nemo) #2, the values are firefly Hh reporter signal, replicate 1 = 97464; firefly Hh reporter signal, replicate 2 = 73128; Renilla reference signal, replicate 1 = 3456; Renilla reference signal, replicate 2 = 2792; inactive.
Knock-down of Mgat2 came out at: firefly Hh reporter signal, replicate 1 = 86587; firefly Hh reporter signal, replicate 2 = 77722; Renilla reference signal, replicate 1 = 2438; Renilla reference signal, replicate 2 = 2225; inactive.
Knock-down of CG12951 came out at: firefly Hh reporter signal, replicate 1 = 89289; firefly Hh reporter signal, replicate 2 = 1.00e5; Renilla reference signal, replicate 1 = 2009; Renilla reference signal, replicate 2 = 2848; inactive.
Against CG13064, the entry reads firefly Hh reporter signal, replicate 1 = 1.60e5; Renilla reference signal, replicate 1 = 6417; Renilla reference signal, replicate 2 = 4523; inactive.
CG6144 showed firefly Hh reporter signal, replicate 1 = 4.44e5; firefly Hh reporter signal, replicate 2 = 1.25e5; Renilla reference signal, replicate 1 = 5111; Renilla reference signal, replicate 2 = 5111; inactive.
Mgat4a #1 showed firefly Hh reporter signal, replicate 1 = 3.30e5; Renilla reference signal, replicate 1 = 7965; inactive.
For Mgat4a #2, the values are firefly Hh reporter signal, replicate 1 = 83158; Renilla reference signal, replicate 1 = 3315; Renilla reference signal, replicate 2 = 2445; inactive.
Depletion of CG6674 gave: firefly Hh reporter signal, replicate 1 = 81200; firefly Hh reporter signal, replicate 2 = 45901; Renilla reference signal, replicate 1 = 4053; Renilla reference signal, replicate 2 = 2049; inactive.
Against Syx1A (Syntaxin 1A), the values are firefly Hh reporter signal, replicate 1 = 5.51e5; firefly Hh reporter signal, replicate 2 = 84260; Renilla reference signal, replicate 1 = 29910; Renilla reference signal, replicate 2 = 2624; inactive.

Part of the list above in another layout.
gene,reagent no.,"firefly Hh reporter signal, replicate 1","firefly Hh reporter signal, replicate 2","Renilla reference signal, replicate 1","Renilla reference signal, replicate 2",call
CG6674,1,81200,45901,4053,2049,inactive
Syx1A (Syntaxin 1A),1,5.51e5,84260,29910,2624,inactive
